Reference: PubChem BioAssay AID1347075 (National Center for Advancing Translational Sciences (NCATS), 2019)
About 5,500 (1.4%) of roughly 400,000 compounds were called active. Inconclusive means that the source gave no clear call. Such entries were picked first, then a sample of the others. Calls come from the whole dose curve; as a rule, active = well fitted cell-killing curve with a large enough effect; inconclusive = small, poorly fitted or top-dose-only effect, or effect the other way; inactive = flat fitted curve, though single readings scatter. Potencies of inconclusive entries are doubtful fits and often do not repeat.

assay: qHTS assay for MDR1-selective chemotherapeutics: Primary screen using the parental adenocarcinoma cell KB-3-1; settings: KB-3-1 viability, CellTiter-Glo ATP luminescence, 72 h; activity change, negative = cytotoxic: at 46.1 µM (top of the series); note: nearly all actives have a fitted effect of over 60% in size
In short: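 Cells are dispensed, compounds pinned in, plates held at 37 °C for 72 h, then CellTiter-Glo is added and luminescence read after 10 minutes. Cell line: parental KB-3-1 in phenol-red-free DMEM, 10% FBS.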
% is set by controls: 0 for no effect and ±100 for the full control effect; potency is the fitted concentration of half-maximal effect.

Q: For `O=C(Nc1ccc(Cl)cc1)c1ccc(CN2CCc3ccccc3C2)cc1`, which Potency is on record?
A: inconclusive: 29.1 µM [cytotoxic, single point]

Q: With `COC(=O)C1=CN(c2ccc3c(c2)OCO3)C(N)=C(C#N)C1c1ccc(-c2ccccc2)cc1` (configuration not stated) as the molecule, how does the Potency read?
A: active: 4.61 µM

Q: With `COc1ccccc1C(=O)C1CCCN(C(=O)c2ccccn2)C1` (configuration not stated) as the molecule, how does the “activity change, negative = cytotoxic” value read?
A: inactive: -4.83%

Q: Which Potency does the source give for `Cc1ccc(CN(Cc2cccnc2)C(=S)Nc2cc(Cl)ccc2C)cc1` here?
A: inconclusive: 20.6 µM [cytotoxic, single point]

Q: For `Clc1ccc2c(c1)C1OCCC1C(c1ccco1)N2` (configuration not stated), which Potency is on record?
A: inconclusive: 16.4 µM [cytotoxic, single point]

Q: With `O=[N+]([O-])c1ccccc1N/N=C/c1ccccc1` as the molecule, how does the “activity change, negative = cytotoxic” value read?
A: inactive: -1.06%

Q: For `Cc1cccn2c(=O)c(/C=C(\C#N)c3nc4ccccc4n3C)c(Oc3ccc(Br)cc3)nc12`, which Potency is on record?
A: inconclusive: 9.2 µM [cytotoxic, partial curve]

Q: With `Cc1ccc(NC(=O)CCCn2nc(C)c3c(C)n(-c4ccccc4)nc3c2=O)cc1Cl` as the molecule, how does the “activity change, negative = cytotoxic” value read?
A: inactive: 0.11%

Q: Which “activity change, negative = cytotoxic” value does the source give for `CCCNC(=O)c1ccccc1NC(=O)c1ccccc1N(C)S(C)(=O)=O` here?
A: inactive: -1.09%

Q: For `CCN(CC)c1ccc(/C=N/NC(=S)NCc2ccccc2)c(O)c1`, which Potency is on record?
A: active: 7.31 µM

Q: For `COc1cccc2c1OCC(CN1CCN(CCC(C)C)C(CCO)C1)=C2` (configuration not stated), which activity change, negative = cytotoxic is on record?
A: inconclusive: -5.84%

Q: Which “activity change, negative = cytotoxic” value does the source give for `O=c1oc2ccccc2cc1-c1cn2ccccc2n1` here?
A: inactive: 0%

Q: For `CCN(CC)c1ccc(CNc2nc3ccccc3n2CCN2CCCCC2)cc1`, which Potency is on record?
A: inconclusive: 29.1 µM [cytotoxic, single point]

Q: For `COc1ccccc1N1CCN(C(=O)c2c(-c3ccccc3)noc2C)CC1`, which Potency is on record?
A: active: 4.61 µM

Q: Which Potency does the source give for `CC(C)C(=O)NC(c1ccco1)c1ccc2cccnc2c1O` (configuration not stated) here?
A: active: 4.11 µM

Q: Which Potency does the source give for `CC(C)c1ccc(CN2CCN(C(=O)CSc3nnnn3C3CC3)CC2)cc1` here?
A: inconclusive: 14.6 µM [cytotoxic, partial curve]

Q: For `Cc1sc2nc(SCc3ccccc3)n(Cc3ccco3)c(=O)c2c1C`, which “activity change, negative = cytotoxic” value is on record?
A: inactive: 5.29%

Q: Which Potency does the source give for `COc1ccccc1NC(=O)CSc1nnc(-c2ccccc2)o1` here?
A: inconclusive: 29.1 µM [cytotoxic, single point]

Q: Which “activity change, negative = cytotoxic” value does the source give for `CCOCCCn1c(=N)c(S(=O)(=O)c2ccc(C)cc2)cc2c(=O)n3cccc(C)c3nc21` here?
A: inactive: -9.39%

Q: For `CCN(CC1CCCO1)C(=O)CCc1nnc(CCc2ccccc2)o1` (configuration not stated), which “activity change, negative = cytotoxic” value is on record?
A: inactive: 7.15%

Q: With `CC(=O)N1CCCc2cc(S(=O)(=O)N(C)CC(=O)Nc3ccc(F)cc3Cl)ccc21` as the molecule, how does the Potency read?
A: inconclusive: 29.1 µM [cytotoxic, single point]

Q: With `Cc1ccc(NC(=O)c2c(Nc3ccccc3C)sc(C(=O)c3ccccc3)c2N)cc1` as the molecule, how does the Potency read?
A: inconclusive: 25.9 µM [cytotoxic, partial curve, poor fit]

Q: Which Potency does the source give for `C/C(CC(=O)Nc1ccc(Cl)c(C(F)(F)F)c1)=N\NC(=O)c1cc2ccccc2cc1O` here?
A: inconclusive: 29.1 µM [cytotoxic, single point]

Q: With `COc1ccc(CCNC(=O)c2ccccc2OCc2ccccc2)cc1` as the molecule, how does the Potency read?
A: inconclusive: 29.1 µM [cytotoxic, single point]

Q: For `O=[N+]([O-])c1ccc(C[n+]2cccc3ccccc32)cc1`, which “activity change, negative = cytotoxic” value is on record?
A: inactive: -1.36%

Q: With `COc1cc2c(cc1Cl)/C(=C\CCN(C)C)c1ccccc1S2` as the molecule, how does the Potency read?
A: inconclusive: 29.1 µM [cytotoxic, single point]

Q: For `COc1ccc2nc(SCC(C)=O)c(C#N)cc2c1`, which “activity change, negative = cytotoxic” value is on record?
A: inactive: -18.7%

Q: Which Potency does the source give for `CCN1CCN(Cc2c(O)ccc3c2O/C(=C\C=C\c2ccccc2)C3=O)CC1` here?
A: active: 16.4 µM

Q: For `CCCOc1ccc(C(=O)Nc2cccc(-c3nc4ccccc4[nH]3)c2)cc1`, which Potency is on record?
A: inconclusive: 29.1 µM [cytotoxic, single point]

Q: Which Potency does the source give for `O=C(O)Cc1sc(=O)[nH]c1O` here?
A: inconclusive: 29.1 µM [rising, single point]

Q: For `Cc1ccc(-c2nc(C)c(CCNC(=O)C(=O)Nc3ccc4c(c3)OCCO4)s2)cc1`, which “activity change, negative = cytotoxic” value is on record?
A: inactive: -24.2%

Q: Which “activity change, negative = cytotoxic” value does the source give for `O=C1Cc2cc(S(=O)(=O)N3CCNCC3)ccc2N1` here?
A: inactive: 3.96%

Q: For `CCCCn1c(SCC(=O)c2ccc(O)c(O)c2)nc2ccsc2c1=O`, which Potency is on record?
A: inconclusive: 29.1 µM [cytotoxic, single point]

Q: With `CC(=O)Nc1cccc(-c2ccnc3c2CC(C)(C(=O)NCc2cccc(Cl)c2)O3)c1` (configuration not stated) as the molecule, how does the Potency read?
A: active: 14.6 µM

Q: For `C=CCn1c(C)cc(C2=NNC(=NCc3ccccc3)SC2)c1C`, which Potency is on record?
A: inconclusive: 29.1 µM [cytotoxic, single point]

Q: With `CCc1ccc(-c2cc(C)no2)cc1S(=O)(=O)N1CCN(c2ccccc2)CC1` as the molecule, how does the Potency read?
A: inconclusive: 23.1 µM [cytotoxic, single point]

Q: Which Potency does the source give for `CCC(=O)NC(c1ccccc1OC)c1ccc2cccnc2c1O` (configuration not stated) here?
A: active: 10.3 µM

Q: With `O=C(NNC(=O)c1ccc([N+](=O)[O-])o1)c1ccccc1` as the molecule, how does the Potency read?
A: inconclusive: 29.1 µM [cytotoxic, single point]

Q: For `Cc1ccc(C2CN(c3ccccc3)CC2C(=O)c2ccc(F)cc2)cc1` (configuration not stated), which Potency is on record?
A: inconclusive: 23.1 µM [cytotoxic, partial curve]

Q: Which Potency does the source give for `CN(Cc1ccc(Cl)cc1)C(C(=O)NC1CCCCC1)c1ccnc2ccccc12` (configuration not stated) here?
A: inconclusive: 29.1 µM [cytotoxic, single point]

Q: With `Nc1ccc(S(=O)(=O)c2ccc(N)c(N)c2)cc1` as the molecule, how does the Potency read?
A: inconclusive: 16.4 µM [rising, partial curve, poor fit]

Q: For `CCN(CC)C(=O)c1ccc2nc3ccccc3nc2c1`, which Potency is on record?
A: active: 5.8 µM

Q: For `O=C(c1ccc(N2CCCC2)c([N+](=O)[O-])c1)N1CCc2ccccc2C1`, which Potency is on record?
A: inconclusive: 4.61 µM [cytotoxic, full curve, poor fit]

Q: With `N#CC(c1ccc(O)cc1)N1CCN(C(C#N)c2ccc(O)cc2)CC1` (configuration not stated) as the molecule, how does the “activity change, negative = cytotoxic” value read?
A: inactive: -2.04%

Q: Which activity change, negative = cytotoxic does the source give for `O=C(Nc1ccccc1Cl)N1CCN(c2ccc3nncn3n2)CC1` here?
A: inconclusive: 42.2%

Q: Which Potency does the source give for `CCOC(=O)Cc1csc(NC(=O)c2c(O)c3c(n(CC(C)C)c2=O)CCCC3)n1` here?
A: inconclusive: 29.1 µM [rising, single point]

Q: With `COc1ccccc1-n1c(SCC(=O)N(C)C)nnc1-c1ccco1` as the molecule, how does the Potency read?
A: inconclusive: 29.1 µM [cytotoxic, single point]

Q: For `COc1ccc(C(=O)Nc2ccccc2C(=O)N/N=C/c2ccccn2)cc1OC`, which Potency is on record?
A: inconclusive: 29.1 µM [cytotoxic, single point]

Q: For `NC(=O)c1ccc(N=Cc2c(O)ccc3ccccc23)cc1`, which Potency is on record?
A: inconclusive: 23.1 µM [cytotoxic, single point]

Q: Which “activity change, negative = cytotoxic” value does the source give for `O=C(CC1C(=O)NCCN1Cc1ccc(-c2ccccc2)cc1)NCc1ccccc1` (configuration not stated) here?
A: inactive: -16%

Q: Which “activity change, negative = cytotoxic” value does the source give for `O=C(COC(=O)c1ccccc1OCCOc1ccccc1)Nc1cccc(Br)c1` here?
A: inactive: 0%

Q: Which Potency does the source give for `COc1ccc(C=NNC(=S)NN=Cc2ccc(OC)c(OC)c2)cc1OC` here?
A: active: 0.461 µM

Q: With `COc1cc(/C=C/C(=O)c2ccccc2O)cc(OC)c1OC` as the molecule, how does the Potency read?
A: inconclusive: 29.1 µM [cytotoxic, single point]

Q: For `CCCn1nc(Oc2nc(SC)nc(N(C)C)n2)ccc1=O`, which Potency is on record?
A: inconclusive: 11.6 µM [cytotoxic, partial curve, poor fit]

Q: For `OC[C@@H]1CN(Cc2ccc(-c3ccccc3)cc2)C[C@H](n2cnc3c(NC4CCCC4)ncnc32)O1`, which Potency is on record?
A: inconclusive: 18.4 µM [cytotoxic, single point]

Q: With `Cc1cccc(NC(=O)CNC(=O)N2CC(=O)Nc3ccccc32)c1C` as the molecule, how does the Potency read?
A: inconclusive: 5.17 µM [rising, partial curve, poor fit]

Q: For `CC(=O)c1cnc2cc(-c3ccc(Cl)cc3)nn2c1C`, which Potency is on record?
A: inconclusive: 0.326 µM [rising, full curve]

Q: With `O=c1c2ccc([N+](=O)[O-])cc2ncn1Cc1ccccc1C(F)(F)F` as the molecule, how does the “activity change, negative = cytotoxic” value read?
A: inactive: 5.87%

Q: Which Potency does the source give for `O=C(NCc1ccco1)c1cccc(-c2ccc3nncn3c2)c1` here?
A: inconclusive: 14.6 µM [cytotoxic, partial curve]

Q: With `CCCCCCCCN1C(=O)[C@H](CC(=O)N2CCSCC2)C[C@@]2(C(=O)OCC)CCCC=C12` as the molecule, how does the Potency read?
A: inconclusive: 29.1 µM [cytotoxic, single point]

Q: For `C/C(=N\NC(=O)c1nnn(-c2nonc2N)c1CN(C)c1ccccc1)c1ccccn1`, which Potency is on record?
A: active: 5.8 µM

Q: For `COc1ccc(Cc2nc3ccc(C(=O)NCc4ccc(OC)cc4OC)cc3o2)cc1`, which Potency is on record?
A: inconclusive: 20.6 µM [cytotoxic, partial curve, poor fit]

Q: For `CCN(C(=O)c1cc2cc3ccc(OC)cc3nc2o1)c1cccc(C)c1`, which Potency is on record?
A: inconclusive: 29.1 µM [cytotoxic, single point]

Q: With `COc1cccc(C(=O)NCCS(=O)(=O)NCC2CCCO2)c1` (configuration not stated) as the molecule, how does the “activity change, negative = cytotoxic” value read?
A: inactive: -6.43%

Q: For `CCN(C[C@H]1N[C@@](Cc2ccccc2)(C(=O)OC)[C@H]2C(=O)N(Cc3ccccc3)C(=O)[C@@H]12)C(=O)Nc1ccc(C(F)(F)F)cc1`, which Potency is on record?
A: inconclusive: 29.1 µM [cytotoxic, single point]

Q: Which Potency does the source give for `CCCCC(=O)NC(c1ccc(N(CC)CC)cc1)c1ccc2cccnc2c1O` (configuration not stated) here?
A: active: 4.61 µM

Q: Which “activity change, negative = cytotoxic” value does the source give for `COc1ccc(CCNC(=O)C(=O)Nc2ccc(C)cc2)cc1OC` here?
A: inactive: 2.8%

Q: For `COc1cccc(Cn2c3ccc(NC(=O)CC(C)C(F)(F)F)cc3c(=O)n2C)c1` (configuration not stated), which activity change, negative = cytotoxic is on record?
A: inconclusive: 0%

Q: With `C=Cn1ccnc1P(=S)(c1ccc2c(c1)c1ccccc1n2CC)c1nccn1C=C` as the molecule, how does the Potency read?
A: inconclusive: 20.6 µM [cytotoxic, single point]

Q: Which Potency does the source give for `COc1ccc(C2c3[nH]c4ccccc4c3CCN2C(=O)Cc2nonc2C)c(F)c1` (configuration not stated) here?
A: inconclusive: 20.6 µM [cytotoxic, single point]

Q: For `CCN(CC(=O)Nc1ccccc1-c1ccccc1)Cc1nc2ccccc2c(=O)[nH]1`, which Potency is on record?
A: active: 8.2 µM

Q: For `O=S(=O)(NC1CC1)c1ccc(S(=O)(=O)N2CCCc3ccccc32)cc1`, which Potency is on record?
A: inconclusive: 18.4 µM [cytotoxic, single point]
